Assay [1] addresses myc-his-UCH-L1 (Ubiquitin carboxyl terminal hydrolase-L1), expressed in HEK293T cells (UniProt P09936). Briefly: co-IP; HEK293T cells co-transfected with Flag-EGFR and myc-his-UCH-L1; RIPA lysis; IP with anti-Flag or anti-Myc and protein A/G agarose at 4 C overnight; western blot.
Assay [2] deals with GST-UCH-L1 (UniProt P09936). The assay can be described thus: pull-down; purified GST-UCH-L1 from bacteria on glutathione-sepharose 4B beads incubated with lysate of HEK293T cells transfected with Flag-EGFR, 4 hours at 4 C; washed four times with GST binding buffer; immunoblot; only the target purified.
For assay [3], the target named is myc-his-UCH-L1, expressed in MCF-7/AdrR cells (UniProt P09936). Briefly: co-IP; MCF-7/AdrR cells transfected with myc-his-UCH-L1; RIPA lysis; IP with anti-Myc; endogenous EGFR detected by western blot.

The chains behind the UniProt entries cited, without tags or fusion partners.
UniProt P09936: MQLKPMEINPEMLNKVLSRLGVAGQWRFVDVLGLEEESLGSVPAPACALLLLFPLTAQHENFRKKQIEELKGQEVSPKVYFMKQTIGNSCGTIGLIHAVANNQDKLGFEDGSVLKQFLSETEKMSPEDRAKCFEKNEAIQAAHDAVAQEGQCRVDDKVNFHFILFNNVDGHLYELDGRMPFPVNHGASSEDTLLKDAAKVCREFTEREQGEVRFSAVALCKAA

Results are given in words; binding and its absence hold for the method and conditions named. Binding seen in cells or lysates may run through a third protein. Some results given as binding are weak or reduced against the parent protein; the word gives no strength.

Drawing on paper PMC6993235, this text covers binding for 2 substances.

Consider “Flag-EGFR, expressed in HEK293T cells (from UniProt P00533 25-1210) (receptor)”, for which the binding entry in assay [1] and in assay [2] was “binds” in each case.

As to “endogenous EGFR of MCF-7/AdrR cells (from UniProt P00533 25-1210) (receptor)”, in assay [3], the binding entry is given as “binds”.
